{"source": "paper PMC5628898", "about": "“Does consumption of red grapefruit juice alter naringenin concentrations in milk produced by breastfeeding mothers?” (PLoS ONE, 2017)", "assay": "Naringenin concentration in milk of breastfeeding mothers on naringenin-restricted diet, before and after 250 ml red grapefruit juice (HPLC after deconjugation)", "settings": "female, in vivo", "excerpt": "Prior to enrollment, each volunteer was informed about the course and aim of the study, and signed the informed consent. They were also provided with oral and written instructions on the diet that disallowed consumption of any naringenin-containing foods and beverages. The volunteers agreed to follow the diet and not to take any vitamin supplements or any other food supplements for the duration of their participation in the study. They followed the diet for a total of 5 days, refraining from eating foods containing larger quantities of naringenin, such as citrus fruits, citrus fruit juices, citrus fruit pulps, tomatoes and tomato-containing food products, aromatic herbs. For the first two days of the study (pre-exposure) the volunteers collected breast milk samples every 12 hours, each in the amount of four to six ml. On the third day of the study they drank a single 250 ml serving of red grapefruit juice (a 250 ml bottle) in the morning on an empty stomach. In this part of the experiment, the volunteers collected breast milk samples at the following time points: 0 (directly before drinking the juice) and 1, 2, 3, 4, 5, 6, 12, 18, 24, 36 hours post-exposure. Milk samples were collected from full breasts. Milk was collected into chemically pure disposable plastic test tubes.\nThe samples were frozen by the volunteers at –20°C, regularly collected from the volunteers by the investigator, transported in a laboratory deep freezer, and frozen to –80°C until analysis. Each sample was labelled with the volunteer's initials and with the date and time of sampling. During the study, we remained in constant telephone contact with the volunteers. A commercial 100% grapefruit juice originating from ecological farms in Israel, in 250 ml bottles, were used in the study. […]\nNaringenin analysis was done on a Shimadzu HPLC system (Kyoto, Japan), equipped with binary pump (LC-20 AD), degasser (DGU-20A3), refrigerated autosampler (SIL-20 AC, set at 8°C), a column oven (CTO-20 AC, 30°C), a diode array detector (SPD-M20A) and a mass spectrometry detector (2010EV). […] Naringenin was quantified at 287 nm. […]", "note": "Further values from the same series stand in other lists."}
{"smiles": "O=C1C[C@@H](c2ccc(O)cc2)Oc2cc(O)cc(O)c21", "note": "[naringenin]", "values": [{"measurement": "Mean naringenin concentration in human milk", "setting": "0 h", "value": 673.886, "unit": "nmol/L"}, {"measurement": "Mean naringenin concentration in human milk", "setting": "36 h", "value": 701.592, "unit": "nmol/L"}, {"measurement": "Mean naringenin concentration in human milk", "setting": "-48 h", "value": 823.235, "unit": "nmol/L"}]}
